Assay results reported in article doi:10.1101/2024.03.19.585775.
Results are given in words; binding and its absence hold for the method and conditions named. Some binding calls cover weakened binding; strength is not graded here. For some assays here: Tags and fused reporters may be left off the sequences shown.

T1: ΔAH-Cdc12 (Cdc12 with the C-terminal residues 390-407 deleted) (S. cerevisiae) (UniProt P32468)
T1 sequence: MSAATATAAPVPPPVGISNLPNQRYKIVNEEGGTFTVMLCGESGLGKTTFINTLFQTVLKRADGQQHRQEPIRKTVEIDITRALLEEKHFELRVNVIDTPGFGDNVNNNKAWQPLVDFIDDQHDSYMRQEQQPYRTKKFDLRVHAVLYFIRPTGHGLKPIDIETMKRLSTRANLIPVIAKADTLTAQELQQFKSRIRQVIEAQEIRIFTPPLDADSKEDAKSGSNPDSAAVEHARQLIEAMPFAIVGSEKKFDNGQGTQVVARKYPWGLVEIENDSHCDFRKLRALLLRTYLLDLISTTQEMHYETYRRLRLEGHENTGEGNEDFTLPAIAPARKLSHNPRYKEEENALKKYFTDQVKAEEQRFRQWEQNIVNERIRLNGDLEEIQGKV

T2: ΔCTE-Cdc12 (Cdc12 with the C-terminal extension, residues 339-407, deleted) (S. cerevisiae) (UniProt P32468)
T2 sequence: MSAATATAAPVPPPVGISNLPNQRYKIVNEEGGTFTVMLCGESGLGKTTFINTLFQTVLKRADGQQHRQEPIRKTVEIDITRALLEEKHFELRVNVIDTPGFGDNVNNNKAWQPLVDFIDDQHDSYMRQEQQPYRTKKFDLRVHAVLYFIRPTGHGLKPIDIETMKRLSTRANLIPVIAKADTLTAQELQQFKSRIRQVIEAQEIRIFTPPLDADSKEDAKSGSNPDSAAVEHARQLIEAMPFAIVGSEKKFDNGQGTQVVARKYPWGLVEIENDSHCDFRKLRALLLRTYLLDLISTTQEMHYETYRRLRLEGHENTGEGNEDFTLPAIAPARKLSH

T3: MBP-Cdc12 (S. cerevisiae) (UniProt P32468)
T3 sequence: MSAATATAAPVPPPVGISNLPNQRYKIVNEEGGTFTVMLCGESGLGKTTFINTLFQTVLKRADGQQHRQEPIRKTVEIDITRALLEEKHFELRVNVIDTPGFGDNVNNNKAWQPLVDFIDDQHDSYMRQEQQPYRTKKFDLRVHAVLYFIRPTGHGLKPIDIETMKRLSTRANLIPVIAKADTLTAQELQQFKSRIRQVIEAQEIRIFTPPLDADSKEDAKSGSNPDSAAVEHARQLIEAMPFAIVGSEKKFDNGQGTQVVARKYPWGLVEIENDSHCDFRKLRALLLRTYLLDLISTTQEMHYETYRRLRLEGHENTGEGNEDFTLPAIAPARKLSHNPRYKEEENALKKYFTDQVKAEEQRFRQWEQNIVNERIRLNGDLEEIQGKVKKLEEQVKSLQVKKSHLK

T4: (6xHis)Cdc3-GFP (S. cerevisiae) (UniProt P32457)
T4 sequence: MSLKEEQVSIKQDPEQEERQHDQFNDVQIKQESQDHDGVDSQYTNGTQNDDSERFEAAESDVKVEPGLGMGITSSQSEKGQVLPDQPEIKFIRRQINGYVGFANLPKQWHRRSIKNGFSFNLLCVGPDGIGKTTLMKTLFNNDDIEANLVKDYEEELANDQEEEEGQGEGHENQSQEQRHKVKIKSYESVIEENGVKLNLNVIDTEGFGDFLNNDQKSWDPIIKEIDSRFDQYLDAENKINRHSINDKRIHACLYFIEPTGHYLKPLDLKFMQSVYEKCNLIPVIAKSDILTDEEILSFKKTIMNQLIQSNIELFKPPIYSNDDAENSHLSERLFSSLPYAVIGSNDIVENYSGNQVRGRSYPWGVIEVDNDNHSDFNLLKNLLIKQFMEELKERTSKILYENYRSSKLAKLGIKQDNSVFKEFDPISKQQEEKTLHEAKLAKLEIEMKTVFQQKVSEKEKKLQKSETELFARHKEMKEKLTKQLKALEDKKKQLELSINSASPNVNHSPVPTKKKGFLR

B1: (6xHis)Cdc3-GFP (protein, UniProt P32457 1-520)
chain: MSLKEEQVSIKQDPEQEERQHDQFNDVQIKQESQDHDGVDSQYTNGTQNDDSERFEAAESDVKVEPGLGMGITSSQSEKGQVLPDQPEIKFIRRQINGYVGFANLPKQWHRRSIKNGFSFNLLCVGPDGIGKTTLMKTLFNNDDIEANLVKDYEEELANDQEEEEGQGEGHENQSQEQRHKVKIKSYESVIEENGVKLNLNVIDTEGFGDFLNNDQKSWDPIIKEIDSRFDQYLDAENKINRHSINDKRIHACLYFIEPTGHYLKPLDLKFMQSVYEKCNLIPVIAKSDILTDEEILSFKKTIMNQLIQSNIELFKPPIYSNDDAENSHLSERLFSSLPYAVIGSNDIVENYSGNQVRGRSYPWGVIEVDNDNHSDFNLLKNLLIKQFMEELKERTSKILYENYRSSKLAKLGIKQDNSVFKEFDPISKQQEEKTLHEAKLAKLEIEMKTVFQQKVSEKEKKLQKSETELFARHKEMKEKLTKQLKALEDKKKQLELSINSASPNVNHSPVPTKKKGFLR
B2: Cdc10 (protein, UniProt P25342 1-322)
chain: MDPLSSVQPASYVGFDTITNQIEHRLLKKGFQFNIMVVGQSGLGKSTLINTLFASHLIDSATGDDISALPVTKTTEMKISTHTLVEDRVRLNINVIDTPGFGDFIDNSKAWEPIVKYIKEQHSQYLRKELTAQRERFITDTRVHAILYFLQPNGKELSRLDVEALKRLTEIANVIPVIGKSDTLTLDERTEFRELIQNEFEKYNFKIYPYDSEELTDEELELNRSVRSIIPFAVVGSENEIEINGETFRGRKTRWSAINVEDINQCDFVYLREFLIRTHLQDLIETTSYIHYEGFRARQLIALKENANSRSSAHMSSNAIQR

Columns and labels:
Assay in all cases: co-purification
[1] = biological target: T1, ΔAH-Cdc12 (Cdc12 with the C-terminal residues 390-407 deleted) (S. cerevisiae)
[2] = biological target: T2, ΔCTE-Cdc12 (Cdc12 with the C-terminal extension, residues 339-407, deleted) (S. cerevisiae)
[3] = biological target: T3, MBP-Cdc12 (S. cerevisiae)
Cdc10 (S. cerevisiae) = Cdc10 (S. cerevisiae) (UniProt P25342)
[4] = biological target: T4, (6xHis)Cdc3-GFP (S. cerevisiae)

| Binder | binding [1] | binding [2] | binding [3] | binding (Cdc10 (S. cerevisiae)) | binding [4] |
| --- | --- | --- | --- | --- | --- |
| B1 | binds | binds | binds | – | – |
| B2 | – | – | – | binds | binds |
